The experiment deals with T1, Receptor-interacting protein 3 (rat (endogenous in NRCMs)) (UniProt Q9Z2P5).
T1 sequence: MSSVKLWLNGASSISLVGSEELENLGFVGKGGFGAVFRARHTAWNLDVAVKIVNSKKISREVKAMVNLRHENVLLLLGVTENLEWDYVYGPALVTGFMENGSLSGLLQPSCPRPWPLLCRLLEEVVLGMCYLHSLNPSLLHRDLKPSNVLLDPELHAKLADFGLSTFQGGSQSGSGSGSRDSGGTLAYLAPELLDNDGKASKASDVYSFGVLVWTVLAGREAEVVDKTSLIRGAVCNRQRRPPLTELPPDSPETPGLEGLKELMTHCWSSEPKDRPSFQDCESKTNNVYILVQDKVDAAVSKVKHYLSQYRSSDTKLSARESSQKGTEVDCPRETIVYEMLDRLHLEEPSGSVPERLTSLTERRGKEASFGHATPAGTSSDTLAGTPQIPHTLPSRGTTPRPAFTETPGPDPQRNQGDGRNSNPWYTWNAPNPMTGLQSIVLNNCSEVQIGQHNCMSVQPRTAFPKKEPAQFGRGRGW
Kind of experiment: co-IP; NRCM lysate (50 mmol/l Tris-HCl pH 7.5, 150 mmol/l NaCl, 0.5% NP-40) incubated with RIP3 antibody and protein-G magnetic beads at 4°C overnight; MLKL detected by Western blot; cells treated with PE (interaction enhanced by PE). In general terms: A western blot detects proteins with antibodies after separation by electrophoresis.

These are yes or no findings as the source states them, for the method shown. In cells and extracts the contact can be indirect. Some binding calls cover weakened binding; strength is not graded here.

B1: Mixed lineage kinase domain-like protein (protein, UniProt D3ZKP6 1-462)
chain: MDKLGQIIKLGQLIYDQCEKMKYCKRQCRRLRNRVHGLLQPLQRLQAQEKKSLPSDITAALGRFEDVLKEARQQIEKFSQKSNIWKFATVGSDKILFHEVNEKLRDIWEELLLLLQVDQWKSDSEVSQPASWQQEDQQDAEEDGNENMKVILVKLQISMEEIKEALKQCSLKPMQEVPQDFQVKEIPKEDLGYPWTKLKTNKLSTIYRGEYYKSPVTIKVFNNPKAESVGIVRLTFNEEIKTMKKFDSPNILRIFGICIDQTVKPPEFSIVMEYCELGTLRELLDRDKDLTMSVRSLLVLRAARGLYRLHHSGTLHGNISSSSFLVAGGYQVKLAGFELSKTQTSISRATKSTKAERFSSTAYVSPERLQDPFCKYDTKAEIYSFGIVLWEIATGKIPFEGCDSEKIYELVAENKKQEPVGQDCPELLQEIINECRAHEPSNRPSADGRILSLPQMENTRQS
Turning to B1, the binding entry was “binds”.
